From patent US7105290 (PROCTER AND GAMBLE, dated 2006)
No constants are given. Whether binding was seen depends on the method and setting. Some entries that bind do so weakly or less than the wild type.

Chains of the proteins cited; added tags and fusions are not shown. Lines headed by an entry give the natural chain unless they say otherwise; changes in a name come on top.
UniProt Q05438: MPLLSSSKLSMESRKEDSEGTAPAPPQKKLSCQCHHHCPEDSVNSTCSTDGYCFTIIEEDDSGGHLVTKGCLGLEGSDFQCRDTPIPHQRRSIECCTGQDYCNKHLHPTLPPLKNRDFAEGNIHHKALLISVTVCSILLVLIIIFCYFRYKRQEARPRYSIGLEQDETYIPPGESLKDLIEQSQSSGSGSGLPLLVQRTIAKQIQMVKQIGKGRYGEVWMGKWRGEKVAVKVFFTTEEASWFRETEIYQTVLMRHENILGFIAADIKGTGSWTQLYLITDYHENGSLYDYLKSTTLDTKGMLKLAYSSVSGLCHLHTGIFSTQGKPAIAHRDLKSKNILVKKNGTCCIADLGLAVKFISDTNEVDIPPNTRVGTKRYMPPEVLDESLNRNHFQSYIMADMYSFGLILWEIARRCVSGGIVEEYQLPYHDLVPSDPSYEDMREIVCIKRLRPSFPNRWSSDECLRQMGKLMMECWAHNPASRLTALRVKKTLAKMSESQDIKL

Biological target: BRK-2 co-expressed with t-BRK-3 (BRK-2/t-BRK-3 complex) (chicken; human) (UniProt Q05438)
Assay: competition, 10 nM unlabeled ligand against [^125I]-BMP-4; crosslinking and immunoprecipitation with antiserum 1380

- binding: binds
B1: digit-removed BMP-2 (ligand, UniProt P12643 294-396, looked up)
chain: SSCKRHPLYVDFSDVGWNDWIVAPPGYHAFYCHGECPFPLADHLNSTNHAIVQTLVNSVNSKIPKACCVPTELSAISMLYLDENEKVVLKNYQDMVVEGCGCR
